According to patent publication US20150216993A1 (priority 2012, published 2015):
At least one structure is not confirmed: it was looked up by name or label, or the drawing left a doubt.

Tests used:
[1] = pH 7.4
[2] = format: binding; details: pH 7.4

SMILES	observed rate constant (kobsd) for PDX hydrolysis [1]	additional molecules bound in PBS compared with D2O [2]
C[n+]1ccccc1/C=N/O [2-PAM, pyridine-2-aldoxime methochloride]	≈ 1.0×10^−4	up to 10 drug molecules per dendrimer
O/N=C/c1cc[n+](COC[n+]2ccc(/C=N/O)cc2)cc1 [obidoxime, obidoxime chloride]	≈ 1.2×10^−4	
